From PMC6029018 come the findings set out here.

Amino acid sequences for entries named in this document (tags omitted).
UniProt Q9UNS2: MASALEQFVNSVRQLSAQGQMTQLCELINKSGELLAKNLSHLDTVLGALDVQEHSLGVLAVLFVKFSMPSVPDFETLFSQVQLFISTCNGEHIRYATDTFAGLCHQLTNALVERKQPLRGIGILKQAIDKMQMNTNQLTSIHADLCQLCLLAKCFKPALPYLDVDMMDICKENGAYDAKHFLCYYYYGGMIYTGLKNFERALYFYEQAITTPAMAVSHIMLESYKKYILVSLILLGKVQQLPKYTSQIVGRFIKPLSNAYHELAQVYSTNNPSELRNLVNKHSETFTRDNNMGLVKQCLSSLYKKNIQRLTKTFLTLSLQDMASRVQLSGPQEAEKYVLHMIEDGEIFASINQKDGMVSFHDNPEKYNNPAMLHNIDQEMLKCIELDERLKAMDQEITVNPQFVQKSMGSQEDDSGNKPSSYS
UniProt Q14457: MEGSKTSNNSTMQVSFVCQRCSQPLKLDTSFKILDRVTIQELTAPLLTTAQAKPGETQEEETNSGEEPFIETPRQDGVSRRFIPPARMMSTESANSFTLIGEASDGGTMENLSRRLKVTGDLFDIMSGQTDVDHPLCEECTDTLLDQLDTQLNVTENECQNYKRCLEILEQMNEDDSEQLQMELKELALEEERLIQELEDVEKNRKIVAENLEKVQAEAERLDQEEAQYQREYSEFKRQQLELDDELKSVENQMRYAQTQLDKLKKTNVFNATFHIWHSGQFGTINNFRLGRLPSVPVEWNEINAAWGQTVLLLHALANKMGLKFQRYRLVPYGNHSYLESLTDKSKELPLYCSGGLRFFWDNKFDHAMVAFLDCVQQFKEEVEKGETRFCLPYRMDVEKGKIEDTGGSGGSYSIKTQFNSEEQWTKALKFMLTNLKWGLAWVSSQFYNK

Results are given in words; binding and its absence hold for the method and conditions named. Binding seen in cells or lysates may run through a third protein. Some entries that bind do so weakly or less than the wild type.

The target in assay [1] is COP9 signalosome subunit 3 (COPS3) (human (endogenous in 143B and HOS)) (UniProt Q9UNS2). In words: co-IP; endogenous proteins in separated cytoplasmic and nuclear extracts of 143B or HOS cells (NE-PER reagents); anti-COPS3 precipitation, Protein A-Agarose, immunoblot for Beclin1. A general note: Immunoblotting shows a protein as a band on a membrane.
Assay [2] has the same target. The experiment in a line: co-IP; endogenous proteins in whole cell lysates of 143B or HOS cells; antibody (COPS3 or Raf-1) 3 h at 4 °C, Protein A-Agarose 1 h, washed three times with lysis solution, immunoblot; for LC3 cells with or without 1 mM H2O2 for 4 h.
Assay [3] deals with Raf-1 kinase (human (endogenous in 143B and HOS)) (UniProt P04049). The assay is described as above.

With Beclin1 (from UniProt Q14457 1-450), the binding entry in assay [1] and in assay [2] was “binds” each time.

“COP9 signalosome subunit 3 (COPS3) (from UniProt Q9UNS2 1-423)”: in assay [3], the binding entry is reported as “binds”.

Regarding “Raf-1 kinase (from UniProt P04049 1-648)”, in assay [2], the binding entry was “binds”.
